Experimental data taken from paper PMC3885651.
These are yes or no findings as the source states them, for the method shown. Some results given as binding are weak or reduced against the parent protein; the word gives no strength. Where a sequence is shown, tags or fusion partners need not be part of it.

Amino acid sequences for entries named in this document (tags omitted).
UniProt Q7XA73: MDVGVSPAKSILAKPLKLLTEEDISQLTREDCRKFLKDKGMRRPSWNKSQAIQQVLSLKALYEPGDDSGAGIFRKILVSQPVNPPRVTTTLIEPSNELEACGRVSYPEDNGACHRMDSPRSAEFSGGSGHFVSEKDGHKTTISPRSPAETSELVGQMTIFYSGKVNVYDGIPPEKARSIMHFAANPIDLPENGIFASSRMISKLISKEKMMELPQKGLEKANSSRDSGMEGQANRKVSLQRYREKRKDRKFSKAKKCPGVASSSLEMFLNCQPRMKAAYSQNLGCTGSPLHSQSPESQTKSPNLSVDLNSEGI
UniProt Q9SV55: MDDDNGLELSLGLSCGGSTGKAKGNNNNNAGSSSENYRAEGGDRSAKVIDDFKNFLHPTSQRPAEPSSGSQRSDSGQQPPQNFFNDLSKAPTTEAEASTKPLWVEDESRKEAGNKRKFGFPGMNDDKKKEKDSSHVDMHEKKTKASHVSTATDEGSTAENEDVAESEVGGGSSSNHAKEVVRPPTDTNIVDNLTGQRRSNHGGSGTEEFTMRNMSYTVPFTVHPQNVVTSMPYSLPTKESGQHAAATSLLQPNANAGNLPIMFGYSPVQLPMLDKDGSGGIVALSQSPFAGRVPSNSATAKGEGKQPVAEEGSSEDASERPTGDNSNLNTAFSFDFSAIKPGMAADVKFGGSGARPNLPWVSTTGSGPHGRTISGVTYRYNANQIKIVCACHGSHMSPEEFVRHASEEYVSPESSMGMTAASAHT
UniProt Q8GY55: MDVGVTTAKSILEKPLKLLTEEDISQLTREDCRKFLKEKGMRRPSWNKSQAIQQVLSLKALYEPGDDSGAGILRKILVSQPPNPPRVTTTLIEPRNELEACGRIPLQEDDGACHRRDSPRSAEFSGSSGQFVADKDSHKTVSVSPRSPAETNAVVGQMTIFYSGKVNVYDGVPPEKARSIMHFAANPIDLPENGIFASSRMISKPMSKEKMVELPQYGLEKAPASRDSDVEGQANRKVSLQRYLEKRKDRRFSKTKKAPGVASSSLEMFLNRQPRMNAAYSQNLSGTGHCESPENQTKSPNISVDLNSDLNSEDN

Legend:
Experiment in all cases: two-hybrid; S. cerevisiae PJ69-4A co-transformed with pGADT7 and pGBKT7 fusions; growth on SD lacking Leu, Trp and His (-3) against control (-2); 2 days at 30°C; empty vectors as controls
[1] = target: PEAPOD1 (PPD1), yeast two-hybrid fusion (Arabidopsis thaliana) (UniProt Q7XA73)
[2] = target: NOVEL INTERACTOR OF JAZ (NINJA), yeast two-hybrid fusion (Arabidopsis thaliana) (UniProt Q9SV55)
[3] = target: PEAPOD2 (PPD2), yeast two-hybrid fusion (Arabidopsis thaliana) (UniProt Q8GY55)

binding [1]: binds
binding [2]: binds
binding [3]: binds
B1: TIFY8 (GAL4-AD fusion) (protein, UniProt Q84MB2 1-361)
chain: MMVNHNNGQRPTDIDSRLRQTEQDKLLFHDFLGSKNPTLASTSMADHRLPPDNKAAKAAMTPSTASASSAGGLGGLSSTSDLVERHSGGGNHLDGIQLFGPRSDVSGSIMSNRFSGNKRSNSDSHFTTQEHPETLHWSKLLRNGPGSFSMNVNPLANQPPRGGGQISHLLHQLSTSRFKDENVGPSVIAQTAADEGSRTGMKGPGILSSFTMPNSSKLESFAPSNTGNRKDLASSTKQMTIFYGGQAHVFDDVHPNKADVIMALAGSSGGSWSTGLSHKPKSKNNTSDGPYKLGQMYEGGSSKETPQMPPEFRARPSHQPTSSACHRIFTQPGREHQGSIISRGRDIRDPVHRSDPEKEAT
